Results deposited as PubChem BioAssay AID1259254 (NCATS, 2017)
Assay: 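Gene knock-downs that lead to re-replication, shown by excess G2 DNA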 (primary screen). Cells: human HCT116 colorectal cancer cells. Reagent: single siRNA against human genes. Time to read-out: 3 days. Measurement: 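Imaged Hoechst DNA stain sorts each cell into a cycle phase by DNA amount; per plate, G2 fraction set to 0% for non-targeting and 100% for GMNN siRNA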. Direction: G2 robust z-score and G2 cells, % of GMNN control: higher = more G2 cells, more excess DNA replication; raw share of cells in G2: higher = larger share of cells with G2 DNA content. Rule for the call: 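Active siRNAs have a G2 robust z of 5 or more median absolute deviations over the median, which in these data means about 38% or higher of GMNN control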.
This is one part, drawn at random, of about 59,000 reagents. Of all reagents, about 1,550 (2.6%) got an active call. 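G2 share is only a proxy for re-replication; each gene was hit by three separate siRNAs, and active genes were retested.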 Raw values are not corrected between plates. Unmarked entries are inactive. The record does not give: the amount of reagent.

gene | PubChem SID | G2 robust z-score | G2 cells, % of GMNN control | raw share of cells in G2 (%)
CLPSL1 | SID160725094 | 0.114 | 3.77 | 5.71
CLPSL1 | SID160764382 | 5.67 (active) | 42.9 | 18.7
CLPSL1 | SID160764383 | -0.226 | 1.38 | 3.86
RPL35A | SID160716099 | 6.23 (active) | 46.8 | 24.9
RPL35A | SID160716100 | 3.11 | 24.8 | 14
RPL35A | SID160733713 | 3.7 | 29 | 13.8
HSD17B3 | SID160775347 | 0.343 | 5.38 | 7
HSD17B3 | SID160775348 | -0.535 | -0.798 | 5.38
HSD17B3 | SID160775349 | 0.404 | 5.81 | 6.33
ZNF311 | SID160762736 | 1.11 | 10.7 | 6.79
ZNF311 | SID160762737 | -0.345 | 0.54 | 3.35
ZNF311 | SID160762738 | -0.344 | 0.549 | 3.72
CD80 | SID160738810 | -0.718 | -2.08 | 4.22
CD80 | SID160738821 | 0.198 | 4.36 | 6.59
CD80 | SID160738832 | 0.34 | 5.36 | 5.94
ESPNL | SID160764290 | 1.38 | 12.7 | 8.34
ESPNL | SID160764291 | -0.168 | 1.79 | 4.04
ESPNL | SID160764293 | -0.483 | -0.429 | 4.02
PCDHB16 | SID160746657 | -0.581 | -1.12 | 5.18
PCDHB16 | SID160746658 | 5.81 (active) | 43.9 | 19.9
PCDHB16 | SID160746659 | 1.79 | 15.5 | 9.87
KTI12 | SID160754776 | -0.192 | 1.62 | 6.42
KTI12 | SID160754777 | 6.36 (active) | 47.7 | 25.5
KTI12 | SID160754778 | -1.25 | -5.8 | 2.29
CS | SID160748896 | -1.01 | -4.16 | 2.66
CS | SID160748907 | -0.125 | 2.09 | 5.71
CS | SID160748918 | -1.27 | -5.95 | 2.82
BRF2 | SID160743455 | -0.367 | 0.387 | 2.93
BRF2 | SID160743456 | -0.377 | 0.318 | 6.05
BRF2 | SID160743457 | -0.204 | 1.53 | 4.11
PLPP3 | SID160720428 | 0.187 | 4.28 | 6.19
PLPP3 | SID160720429 | 3.42 | 27 | 12.4
PLPP3 | SID160720430 | -0.547 | -0.884 | 3.23

Next part (9 carried over from the part before).
gene | PubChem SID | G2 robust z-score | G2 cells, % of GMNN control | raw share of cells in G2 (%)
CS | SID160748896 | -1.01 | -4.16 | 2.66
CS | SID160748907 | -0.125 | 2.09 | 5.71
CS | SID160748918 | -1.27 | -5.95 | 2.82
BRF2 | SID160743455 | -0.367 | 0.387 | 2.93
BRF2 | SID160743456 | -0.377 | 0.318 | 6.05
BRF2 | SID160743457 | -0.204 | 1.53 | 4.11
PLPP3 | SID160720428 | 0.187 | 4.28 | 6.19
PLPP3 | SID160720429 | 3.42 | 27 | 12.4
PLPP3 | SID160720430 | -0.547 | -0.884 | 3.23
A2ML1 | SID160758171 | 1.4 | 12.8 | 8.12
A2ML1 | SID160758172 | 0.498 | 6.47 | 4.91
A2ML1 | SID160758173 | -0.695 | -1.92 | 2.4
ATP8A2 | SID160741324 | -0.499 | -0.544 | 3.59
ATP8A2 | SID160741325 | 2.69 | 21.9 | 15.9
ATP8A2 | SID160741326 | -0.423 | -0.00573 | 4.24
ACVR1C | SID160756954 | -0.49 | -0.48 | 5.44
ACVR1C | SID160756955 | -1.1 | -4.78 | 3.45
ACVR1C | SID160756956 | 0.0361 | 3.22 | 4.71
DDX49 | SID160741920 | 1.47 | 13.3 | 12
DDX49 | SID160741921 | 1.22 | 11.6 | 8.51
DDX49 | SID160741924 | -0.316 | 0.745 | 4.09
FZD1 | SID160719856 | 2.14 | 18 | 12.3
FZD1 | SID160719857 | 0.416 | 5.9 | 6.58
FZD1 | SID160719858 | -0.0386 | 2.7 | 4.1
COQ9 | SID160745499 | -1.47 | -7.36 | 1.8
COQ9 | SID160745500 | -0.85 | -3.01 | 3.08
COQ9 | SID160745501 | 0.398 | 5.77 | 8.96
SF3A3 | SID160729586 | 3.17 | 25.2 | 16.7
SF3A3 | SID160729587 | 1.64 | 14.5 | 8.53
SF3A3 | SID160729588 | 4.76 | 36.4 | 20.8
DUSP22 | SID160731570 | -0.0453 | 2.65 | 4.29
DUSP22 | SID160745346 | 0.66 | 7.61 | 7.27
DUSP22 | SID160745347 | -0.522 | -0.706 | 4.09
ZMYM3 | SID160721710 | 2.46 | 20.3 | 14.1
ZMYM3 | SID160721711 | -0.987 | -3.97 | 2.32
ZMYM3 | SID160721712 | -0.133 | 2.03 | 4.07
PAPSS2 | SID160721377 | -0.411 | 0.0733 | 5.61
PAPSS2 | SID160721379 | -1.03 | -4.26 | 3.64
PAPSS2 | SID160721380 | -0.198 | 1.57 | 4.19
LRP1 | SID160776719 | -0.337 | 0.6 | 5.71
LRP1 | SID160776720 | 9.72 (active) | 71.4 | 33
LRP1 | SID160776722 | 0.221 | 4.52 | 4.69
VPS39 | SID160736051 | -0.155 | 1.87 | 5.12
VPS39 | SID160736054 | -0.0743 | 2.44 | 5
VPS39 | SID160736055 | -0.467 | -0.321 | 3.19
